This passage reports T/C and survivor count results from PubChem BioAssay AID330 (DTP/NCI, 2004).

The subject of the test is P388 leukemia ip, CD2F1 mice, survival T/C. As to the kind of experiment: NCI In Vivo Anticancer Drug Screen. Data for tumor model P388 Leukemia (intraperitoneal) in CD2F1 (CDF1) mice. The settings on record: T/C endpoint: median survival time, higher T/C = longer survival.
Where [1] appears, read: dose: 6.25 mg/kg/injection, schedule: Q01DX009 (ip), vehicle: saline with Tween-80.
[2] abbreviates: dose: 12.5 mg/kg/injection, schedule: Q01DX009 (ip), vehicle: saline with Tween-80.
Setting [3] is: dose: 25.0 mg/kg/injection, schedule: Q01DX009 (ip), vehicle: saline with Tween-80.

The list does not hold the whole screen: it covers a few groups of compounds. Not every dose and run of a compound is shown. T/C gives the treated animals as a percentage of the vehicle group. Some doses have a count of surviving animals in place of a T/C: the source holds a T/C of zero for them, seemingly a mark for toxic or unscored doses. Survivors were counted at the toxicity check, usually on the fifth day, unless a day is given; later deaths do not show. Schedule codes are those of the source, read here as Q, the interval in days (D) or hours (H), X, the number of doses. For survival time, this PubChem deposit counts one and a half times the control or more as active, and values a quarter to a half above the control carry no call in these data; other NCI protocols may use other cut-offs. Some T/C values are marked as having no survivor count here; that says nothing about deaths at the dose. Some doses were run more than once; their values stand side by side, smallest first.

On to `ClCCN(CCCl)c1ccccc1`, for which the T/C was 121 % of control [survivor count not shown] (dose: 3.12 mg/kg/injection, schedule: Q01DX009 (ip), vehicle: Klucel (hydroxypropylcellulose) (HPC)); 110 % of control [survivor count not shown] (dose: 3.13 mg/kg/injection, schedule: Q01DX009 (ip), vehicle: saline with Tween-80); 146 % of control [survivor count not shown] (dose: 6.0 mg/kg/injection, schedule: Q01DX009 (ip), vehicle: saline with Tween-80); 121 [survivor count not shown] and 134 % of control [survivor count not shown] (dose: 6.25 mg/kg/injection, schedule: Q01DX009 (ip), vehicle: Klucel (hydroxypropylcellulose) (HPC)); 119 % of control [survivor count not shown] under setting [1]; 118 % of control (dose: 8.0 mg/kg/injection, schedule: Q04DX003 (ip), vehicle: Klucel (hydroxypropylcellulose) (HPC)). In addition, the T/C is, setting by setting: (dose: 12.0 mg/kg/injection, schedule: Q01DX009 (ip), vehicle: saline with Tween-80) 146 % of control [survivor count not shown]; (dose: 12.5 mg/kg/injection, schedule: Q01DX009 (ip), vehicle: Klucel (hydroxypropylcellulose) (HPC)) 131 [survivor count not shown] and 141 % of control [survivor count not shown]; under setting [2], 146 % of control [survivor count not shown]; (dose: 16.0 mg/kg/injection, schedule: Q04DX003 (ip), vehicle: Klucel (hydroxypropylcellulose) (HPC)) 141 % of control; (dose: 24.0 mg/kg/injection, schedule: Q01DX009 (ip), vehicle: saline with Tween-80) 171 % of control [survivor count not shown]; (dose: 25.0 mg/kg/injection, schedule: Q01DX009 (ip), vehicle: Klucel (hydroxypropylcellulose) (HPC)) 144 [survivor count not shown] and 164 % of control [survivor count not shown]. The T/C was 144 % of control [survivor count not shown] under setting [3]; 119 % of control [survivor count not shown] (dose: 25.0 mg/kg/injection, schedule: Q04DX003 (ip), vehicle: saline with Tween-80); 110 % of control [survivor count not shown] (dose: 25.0 mg/kg/injection, schedule: Q04DX003 (iv), vehicle: saline with Tween-80); 181 % of control (dose: 32.0 mg/kg/injection, schedule: Q04DX003 (ip), vehicle: Klucel (hydroxypropylcellulose) (HPC)); 101 % of control [survivor count not shown] (dose: 48.0 mg/kg/injection, schedule: Q01DX009 (ip), vehicle: saline with Tween-80); 98 [survivor count not shown] and 114 % of control [survivor count not shown] (dose: 50.0 mg/kg/injection, schedule: Q01DX009 (ip), vehicle: Klucel (hydroxypropylcellulose) (HPC)). Further, the T/C is 117 % of control [survivor count not shown] (dose: 50.0 mg/kg/injection, schedule: Q01DX009 (ip), vehicle: saline with Tween-80); 153 % of control [survivor count not shown] (dose: 50.0 mg/kg/injection, schedule: Q04DX003 (ip), vehicle: saline with Tween-80); 111 % of control [survivor count not shown] (dose: 50.0 mg/kg/injection, schedule: Q04DX003 (iv), vehicle: saline with Tween-80); 108 % of control (dose: 64.0 mg/kg/injection, schedule: Q04DX003 (ip), vehicle: Klucel (hydroxypropylcellulose) (HPC)); 146 % of control [survivor count not shown] (dose: 100.0 mg/kg/injection, schedule: Q04DX003 (ip), vehicle: saline with Tween-80); 117 % of control [survivor count not shown] (dose: 100.0 mg/kg/injection, schedule: Q04DX003 (iv), vehicle: saline with Tween-80). The T/C is 133 % of control [survivor count not shown] (dose: 200.0 mg/kg/injection, schedule: Q04DX003 (ip), vehicle: saline with Tween-80) and 128 % of control [survivor count not shown] (dose: 200.0 mg/kg/injection, schedule: Q04DX003 (iv), vehicle: saline with Tween-80). Also, the survivor count (dose: 128.0 mg/kg/injection, schedule: Q04DX003 (ip), vehicle: Klucel (hydroxypropylcellulose) (HPC)) is recorded as 4 of 8.
On to `Cc1oc2ccccc2c(=O)c1CN(CCCl)CCCl`, for which the T/C (dose: 30.0 mg/kg/injection, schedule: Q01DX005 (ip), vehicle: saline with Tween-80) was 158 % of control; the T/C (dose: 60.0 mg/kg/injection, schedule: Q01DX005 (ip), vehicle: saline with Tween-80) is 137 % of control; the T/C (dose: 120.0 mg/kg/injection, schedule: Q01DX005 (ip), vehicle: saline with Tween-80) was 161 % of control.
In the case of `O=P(Cl)(Cl)N(CCCl)CCCl`, the T/C (dose: 3.12 mg/kg/injection, schedule: Q01DX009 (ip), vehicle: saline with Tween-80) is 106 [survivor count not shown] and 129 % of control [survivor count not shown]; the T/C under setting [1] is 109 [survivor count not shown] and 151 % of control [survivor count not shown]; the T/C under setting [2] is 116 [survivor count not shown] and 129 % of control [survivor count not shown]; the T/C under setting [3] was 129 [survivor count not shown] and 133 % of control [survivor count not shown].
For the compound `Cc1ccc(CN(CCCl)CCCl)cc1C`, the T/C is, setting by setting: (dose: 1.32 mg/kg/injection, schedule: Q01DX009 (ip), vehicle: saline) 133 % of control [survivor count not shown]; (dose: 2.0 mg/kg/injection, schedule: Q01DX009 (ip), vehicle: saline) 140 % of control [survivor count not shown]; (dose: 3.0 mg/kg/injection, schedule: Q01DX009 (ip), vehicle: saline) 177 % of control [survivor count not shown]; (dose: 4.4 mg/kg/injection, schedule: Q04DX003 (ip), vehicle: saline) 145 % of control [survivor count not shown]; (dose: 4.5 mg/kg/injection, schedule: Q01DX009 (ip), vehicle: saline) 166 % of control [survivor count not shown]; (dose: 10.0 mg/kg/injection, schedule: Q04DX003 (ip), vehicle: saline) 155 % of control [survivor count not shown]. In addition, the T/C (dose: 15.0 mg/kg/injection, schedule: Q04DX003 (ip), vehicle: saline) was 165 % of control [survivor count not shown].
With `Cc1cc(C)c(N(CCCl)CCCl)cc1C`, the T/C (dose: 0.8 mg/kg/injection, schedule: Q01DX009 (ip), vehicle: saline with Tween-80) was 128 % of control [survivor count not shown]; the T/C (dose: 1.2 mg/kg/injection, schedule: Q01DX009 (ip), vehicle: saline with Tween-80) is 137 % of control [survivor count not shown]; the T/C (dose: 1.8 mg/kg/injection, schedule: Q01DX009 (ip), vehicle: saline with Tween-80) is 164 % of control [survivor count not shown]; the T/C (dose: 2.7 mg/kg/injection, schedule: Q01DX009 (ip), vehicle: saline with Tween-80) was 156 % of control [survivor count not shown]; the T/C (dose: 2.7 mg/kg/injection, schedule: Q01DX010 (ip), vehicle: saline with Tween-80) is 159 % of control [survivor count not shown]; the T/C (dose: 4.0 mg/kg/injection, schedule: Q01DX010 (ip), vehicle: saline with Tween-80) was 180 % of control [survivor count not shown]. Besides, the T/C (dose: 6.0 mg/kg/injection, schedule: Q01DX010 (ip), vehicle: saline with Tween-80) is 223 % of control [survivor count not shown]; the T/C under setting [1] is 217 % of control [survivor count not shown]; the T/C (dose: 9.0 mg/kg/injection, schedule: Q01DX010 (ip), vehicle: saline with Tween-80) is 229 % of control [survivor count not shown]; the T/C under setting [2] is 103 % of control [survivor count not shown].
For the compound `CCC(C)(O)C#CCN(CCCl)CCCl` (configuration not stated), under “dose: 12.5 mg/kg/injection, schedule: Q04DX003 (ip), vehicle: saline”, the T/C is 95 % of control [survivor count not shown].
